Values of other authors in patent publication US20200172549A1, “NOVEL CHLORIN E6-CURCUMIN DERIVATIVES, PREPARATION METHOD THEREOF, AND PHARMACEUTICAL COMPOSITION CONTAINING THE SAME FOR TREATMENT OF CANCER” (DONG SUNG PHARM. CO., LTD., priority 2017, published 2020).

Settings: cited from earlier work

## COc1cc(/C=C/C(=O)CC(=O)/C=C/c2ccc(O)c(OC)c2)ccc1O [curcumin]
Ethanol and DMSO
  Solubility in ethanol and DMSO: highly soluble
water
  Solubility in water: insoluble
